From paper PMC10286485
Results are given in words; binding and its absence hold for the method and conditions named. In cells and extracts the contact can be indirect. Here binding means that the protein was enriched with, or labelled near, the bait; the list need not be complete.

Protein sequences, listed by entry. Tags and fused reporters are not part of them. Residues count along the entry.
UniProt Q61221: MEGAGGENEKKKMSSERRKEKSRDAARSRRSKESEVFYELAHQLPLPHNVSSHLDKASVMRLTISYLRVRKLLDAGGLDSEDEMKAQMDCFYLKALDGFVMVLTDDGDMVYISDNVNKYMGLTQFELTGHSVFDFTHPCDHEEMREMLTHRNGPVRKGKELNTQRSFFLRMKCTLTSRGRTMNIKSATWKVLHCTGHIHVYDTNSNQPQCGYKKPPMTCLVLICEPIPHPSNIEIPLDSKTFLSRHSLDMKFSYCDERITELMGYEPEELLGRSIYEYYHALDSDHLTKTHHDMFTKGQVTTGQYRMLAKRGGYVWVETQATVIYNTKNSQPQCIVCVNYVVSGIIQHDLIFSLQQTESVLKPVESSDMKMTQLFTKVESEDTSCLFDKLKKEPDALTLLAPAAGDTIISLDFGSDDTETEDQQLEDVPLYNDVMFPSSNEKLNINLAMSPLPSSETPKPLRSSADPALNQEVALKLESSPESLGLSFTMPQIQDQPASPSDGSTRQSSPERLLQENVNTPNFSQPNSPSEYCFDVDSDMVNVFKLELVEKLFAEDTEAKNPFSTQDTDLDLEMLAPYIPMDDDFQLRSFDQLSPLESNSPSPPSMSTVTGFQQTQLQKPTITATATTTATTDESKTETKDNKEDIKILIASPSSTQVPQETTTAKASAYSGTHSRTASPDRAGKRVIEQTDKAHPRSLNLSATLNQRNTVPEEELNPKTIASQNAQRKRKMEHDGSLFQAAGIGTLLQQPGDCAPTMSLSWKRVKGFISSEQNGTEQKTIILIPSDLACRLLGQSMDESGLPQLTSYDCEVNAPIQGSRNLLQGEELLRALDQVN
UniProt P20029, residues 20-655: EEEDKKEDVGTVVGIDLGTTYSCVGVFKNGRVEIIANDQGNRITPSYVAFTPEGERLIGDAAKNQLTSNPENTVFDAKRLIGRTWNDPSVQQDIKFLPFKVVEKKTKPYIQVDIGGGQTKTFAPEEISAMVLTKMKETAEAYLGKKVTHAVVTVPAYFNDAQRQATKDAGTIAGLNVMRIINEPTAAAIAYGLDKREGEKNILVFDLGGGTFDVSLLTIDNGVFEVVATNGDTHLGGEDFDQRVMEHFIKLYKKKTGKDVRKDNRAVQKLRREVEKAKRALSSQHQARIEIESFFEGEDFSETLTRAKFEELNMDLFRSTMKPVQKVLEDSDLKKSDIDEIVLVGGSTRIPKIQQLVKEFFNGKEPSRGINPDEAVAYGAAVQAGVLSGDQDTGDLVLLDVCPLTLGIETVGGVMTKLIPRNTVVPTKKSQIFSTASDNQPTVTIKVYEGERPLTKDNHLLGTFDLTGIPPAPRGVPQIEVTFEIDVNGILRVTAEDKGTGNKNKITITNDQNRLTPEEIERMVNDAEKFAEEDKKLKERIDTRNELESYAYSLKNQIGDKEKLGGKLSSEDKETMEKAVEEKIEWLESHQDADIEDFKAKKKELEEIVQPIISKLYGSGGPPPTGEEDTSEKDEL

Biological target: Hypoxia-Inducible Factor 1α (mouse (endogenous in J774)) (UniProt Q61221)
Experiment: affinity purification with mass spectrometry; HIF1α immunoprecipitated from 2 mg lysate of J774 cells under hypoxia (2% O2, 8 h); SDS-PAGE gel fragments analysed by tandem MS/MS

binding: binds
Substance: Glucose-Regulated Protein-78 (from UniProt P20029 20-655)
